US7109150B2, “Trifluoromethylpyrrolecarboxamides and trifluoromethylpyrrolethioamides as fungicides” (Syngenta Crop Protection, Inc., priority 1999, dated 2006)
Some results were stated once for a whole list of compounds, not compound by compound.

Key:
Type in all cases: in vivo
Botrytis cinerea [1] = experiment: Action against Botrytis cinerea/apple (Botrytis on apple fruits), Example B-5; conditions: apple fruit cv. Golden Delicious, 30 μl droplets in drilled holes, 0.002% active ingredient, assessed after 7 days at 22° C.
Botrytis cinerea [2] = experiment: Action against Botrytis cinerea/tomato (Botrytis on tomatoes), Example B-7; conditions: tomato plants cv. Roter Gnom, spray 0.002% active ingredient, inoculated two days after application, assessed after 4 days incubation
Septoria Nodorum = experiment: Action against Septoria nodorum/wheat (Septoria leaf spot on wheat), Example B-9; conditions: wheat plants cv. Arina, spray 0.02% active ingredient, inoculated one day after application, assessed 11 days after inoculation
Erysiphe graminis = experiment: Action against Erysiphe graminis/barley (powdery mildew on barley), Example B-4; conditions: barley plants cv. Express, spray 0.02% active ingredient, inoculated one day after application, assessed after 6 days incubation
Puccinia Recondita = experiment: Action against Puccinia recondita/wheat (brownrust on wheat), Example B-1; conditions: wheat plants cv. Arina, spray 0.02% active ingredient, inoculated one day after application, assessed 10 days after inoculation
Venturia Inaegualis = experiment: Action against Venturia inaequalis/apple (scab on apple), Example B-3; conditions: apple seedlings cv. McIntosh, spray 0.02% active ingredient, inoculated one day after application
Botrytis cinerea [3] = experiment: Action against Botrytis cinerea/grape (Botrytis on grapes), Example B-6; conditions: grape seedlings cv. Gutedel, spray 0.002% active ingredient, inoculated two days after application, assessed after 4 days incubation
Pyrenophora Teres = experiment: Action against Pyrenophora teres/barley (net blotch on barley), Example B-8; conditions: barley plants cv. Express, spray 0.002% active ingredient, inoculated two days after application, assessed 4 days after inoculation
Podosphaera Leucotricha = experiment: Action against Podosphaera leucotricha/apple (powdery mildew on apple), Example B-2; conditions: apple seedlings cv. McIntosh, spray 0.002% active ingredient, inoculated one day after application, assessed after 12 days incubation

Measured: infestation (strong efficacy)

CC1CCC(c2ncccc2NC(=O)c2cn(C)cc2C(F)(F)F)CC1 (stereo not drawn) [Compound 10.3]
< 20%: all assays above

Cn1cc(C(=O)Nc2cnccc2-c2ccc(F)cc2)c(C(F)(F)F)c1 [Compound 6.15]
< 20%: all assays above

Cn1cc(C(=O)Nc2cccnc2-c2ccc(F)cc2)c(C(F)(F)F)c1 [Compound 10.15]
< 20%: all assays above
